Paper PMC5295445
No constants are given. Whether binding was seen depends on the method and setting. Binding seen in cells or lysates may run through a third protein. Some entries that bind do so weakly or less than the wild type. For some assays here: Sequences can lack the tags named with a protein.

The chains behind the UniProt entries cited, without tags or fusion partners.
UniProt Q13616: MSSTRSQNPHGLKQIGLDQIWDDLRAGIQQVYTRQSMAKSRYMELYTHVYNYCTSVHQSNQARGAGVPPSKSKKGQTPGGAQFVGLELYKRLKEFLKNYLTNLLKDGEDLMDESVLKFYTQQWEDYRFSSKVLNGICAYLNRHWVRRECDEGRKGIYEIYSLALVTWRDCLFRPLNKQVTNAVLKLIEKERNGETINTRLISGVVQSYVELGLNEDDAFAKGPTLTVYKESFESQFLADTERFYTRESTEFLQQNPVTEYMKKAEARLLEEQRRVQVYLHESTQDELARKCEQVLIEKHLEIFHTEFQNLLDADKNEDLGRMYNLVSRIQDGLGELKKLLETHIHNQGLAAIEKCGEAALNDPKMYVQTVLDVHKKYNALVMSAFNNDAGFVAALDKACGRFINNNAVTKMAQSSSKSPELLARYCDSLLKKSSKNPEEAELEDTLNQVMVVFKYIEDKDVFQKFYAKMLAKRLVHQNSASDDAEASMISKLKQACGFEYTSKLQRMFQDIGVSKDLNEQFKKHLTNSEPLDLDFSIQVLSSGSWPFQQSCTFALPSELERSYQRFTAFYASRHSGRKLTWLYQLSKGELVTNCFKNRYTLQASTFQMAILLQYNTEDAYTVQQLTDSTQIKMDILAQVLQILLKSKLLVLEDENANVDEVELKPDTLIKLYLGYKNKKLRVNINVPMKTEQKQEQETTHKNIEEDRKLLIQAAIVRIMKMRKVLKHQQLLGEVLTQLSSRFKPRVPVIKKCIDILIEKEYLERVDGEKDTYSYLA

How the values were obtained:
Flag-CUL1 = Flag-CUL1 (UniProt Q13616); test: co-IP; HeLa cells cotransfected with two tagged proteins; total cell extracts precipitated with anti-tag antibody (anti-Flag or anti-HA) and protein G sepharose overnight at 4°C, Western blot for the other tag
[1] = molecular target: endogenous CUL1 (human (endogenous in HeLa)) (UniProt Q13616); test: co-IP; endogenous proteins in HeLa total cell extracts; IP with antibody to one partner or control IgG, Western blot for the other

Row | binding (Flag-CUL1) | binding [1] | Binder
1 | binds |  | myc-DCUN1D3 (protein, UniProt Q8IWE4 1-304) MGQCVTKCKNPSSTLGSKNGDREPSNKSHSRRGAGHREEQVPPCGKPGGDILVNGTKKAEAATEACQLPTSSGDAGRESKSNAEESSLQRLEELFRRYKDEREDAILEEGMERFCNDLCVDPTEFRVLLLAWKFQAATMCKFTRKEFFDGCKAISADSIDGICARFPSLLTEAKQEDKFKDLYRFTFQFGLDSEEGQRSLHREIAIALWKLVFTQNNPPVLDQWLNFLTENPSGIKGISRDTWNMFLNFTQVIGPDLSNYSEDEAWPSLFDTFVEWEMERRKREGEGRGALSSGPEGLCPEEQT
2 |  | binds | endogenous DCUN1D3 (protein, UniProt Q8IWE4 1-304) MGQCVTKCKNPSSTLGSKNGDREPSNKSHSRRGAGHREEQVPPCGKPGGDILVNGTKKAEAATEACQLPTSSGDAGRESKSNAEESSLQRLEELFRRYKDEREDAILEEGMERFCNDLCVDPTEFRVLLLAWKFQAATMCKFTRKEFFDGCKAISADSIDGICARFPSLLTEAKQEDKFKDLYRFTFQFGLDSEEGQRSLHREIAIALWKLVFTQNNPPVLDQWLNFLTENPSGIKGISRDTWNMFLNFTQVIGPDLSNYSEDEAWPSLFDTFVEWEMERRKREGEGRGALSSGPEGLCPEEQT
